Results reported in PubChem BioAssay AID493014 (National Center for Advancing Translational Sciences (NCATS), 2011).
About 170 (0.05%) of roughly 340,000 compounds were called active. The shares of active, inactive and inconclusive entries below differ from those in the screen. The call rests on the fitted dose curve; in most records, active means well fitted inhibition curve with a large enough effect in the signal ratio, with a control signal flat (not every such curve was filed as active); inconclusive means small, poorly fitted or top-dose-only effect, or effect the other way, or a change in a side signal; inactive means flat fitted curve, though single readings scatter; the % refers to the signal ratio. A potency beside an inconclusive call is a rough fit, not a confirmed value.

Assay: qHTS Assay to Find Inhibitors of Chronic Active B-Cell Receptor Signaling;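 on activity change, negative = inhibition: plate controls were basal doxycycline-induced cells for no effect and cells given 10 µM MG132 for full effect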
Conditions: ABC-DLBCL IkBa-CBG/CBR reporter, luminescence ratio (green luciferase fused to IkBa over red control in TMD8 lymphoma cells), 4 h; activity change, negative = inhibition: at 46.1 µM (top of the series) unless noted
Method in brief: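 Doxycycline induced both beetle luciferases in TMD8 lymphoma cells; IKK-driven degradation limits the IkappaBalpha-fused green signal, while red luminescence normalises for cell number and nonspecific effects. Compounds tested up to 46 uM, 4 hrs.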
Potency means the concentration at half of the fitted maximal effect.

Structure (SMILES) | Potency | activity change, negative = inhibition
COCCNC(=O)c1ccccc1NC(=O)Nc1ccccc1 | inconclusive: 20 µM [falling, partial curve, poor fit] | 
COc1ccc(/C=N\NC(=O)c2ccccc2)cc1COc1ccccc1 |  | inconclusive: -15.6%
O=[N+]([O-])c1ccccc1Oc1ccc(Cl)c2cccnc12 | inconclusive: 15.8 µM [falling, partial curve] | 
CC1CCN(C(=O)C2CC(c3ccc(F)cc3)=NO2)CC1 (stereo not given) |  | inconclusive: -0.7%
Cc1ccc(NC(=O)c2cc(NC(=O)CCC(=O)O)ccc2N2CCCCC2)cc1 | inconclusive: 35.5 µM [rising, partial curve] | 
C/C(=N\Nc1ccc([N+](=O)[O-])cc1)c1ccc2c(c1)OCO2 |  | inconclusive: -1.54%
Cc1cc(C(=O)N/N=C/c2cccn2C)no1 | inconclusive: 18.4 µM [falling, single point] | 
N#CCC(=O)Nc1ccc(C(=O)OCC(=O)NNC(=O)c2cccs2)cc1 | inconclusive: 23.1 µM [falling, partial curve, poor fit] | 
COc1cc(/C=N/NC(=O)c2nc(-c3ccccc3)n(-c3ccccc3)n2)ccc1O |  | inconclusive: -4.04%
CCOC(=O)C1=C(CSCc2ccccc2)NC(=O)NC1c1cc(C)ccc1C (stereo not given) |  | inconclusive: -0.0777%
Cc1ccc(C(=O)CCC2CCCCC2=O)cc1 (stereo not given) | inconclusive: 6.51 µM [rising, single point] | 
Cc1cc(OC(C)C(=O)Nc2ccc(S(=O)(=O)Nc3onc(C)c3C)cc2)cc(C)c1Cl (stereo not given) |  | inconclusive: 3.52%
CC1Cc2nc(SCC(=O)Nc3ccc4c(c3)OCO4)n(Cc3ccccc3)c(=O)c2S1 (stereo not given) |  | inconclusive: -2.22%
COc1ccc(Nc2ncnc3ccc(Br)cc23)cc1OC |  | inactive: -8.04%
OC(COC(c1ccc(F)cc1)c1ccc(F)cc1)CN1CCCC1 (stereo not given) |  | inactive: -2.66%
Nc1nc(CSc2nc3ccccc3s2)nc(N2CCCCC2)n1 |  | inactive: 1.77%
O=C1N/C(=N\S(=O)(=O)Cc2ccccc2)S/C1=C/c1cc([N+](=O)[O-])ccc1O |  | inactive: 6.09%
CCN(CC)c1ccc(/C=N/N2CCOCC2)c(O)c1 |  | inconclusive: 3.09%
CSCCC(NC(=O)c1ccccc1Cl)C(=O)N(C)CC(=O)Nc1ccc(N2CCOCC2)cc1 (stereo not given) |  | inactive: -1.15%
COc1ccc(-c2coc3cc(OC)cc(OC)c3c2=O)cc1 | inconclusive: 22.4 µM [falling, single point] | 
COc1ccc(Nc2ccnc3ccccc23)cc1 |  | inconclusive: -13.1%
Cc1cccc(NS(=O)(=O)c2ccc(Oc3ccccc3)cc2)n1 |  | inactive: -14.3%
CCCCCc1ccc(C(=O)CCC(=O)OCC(=O)N(CC)c2c(N)n(Cc3ccccc3)c(=O)[nH]c2=O)cc1 | inconclusive: 20.6 µM [rising, single point] | 
NC(=O)c1nsc(C(=O)N(Cc2cccnc2)C(C(=O)NCc2ccc(F)cc2)c2ccc(O)cc2)c1N (stereo not given) |  | inconclusive: -8.52%
CCCn1c(SCC(=O)N2CCCC2=O)nc2ccccc2c1=O |  | inconclusive: 0.754%
CCCCN1C(=O)C(=O)N(CC(=O)N2CCc3ccccc32)C1=O |  | inactive: 5.68%
CC1CCN(c2ccc(NC(=O)c3ccc([N+](=O)[O-])o3)cc2)CC1 |  | inactive: -17.1%

Structure (SMILES) | Potency | activity change, negative = inhibition
CC(C)[C@H](NC(=O)c1ccccc1F)C(=O)Nc1ccc(F)c(F)c1 |  | inactive: -6.64%
CCCNc1c(NC(=O)c2ccc3c(c2)OCO3)c(=O)oc2ccccc12 | inconclusive: 11.2 µM [falling, partial curve, poor fit] | 
O=C1CC(c2ccc3c(c2)OCCO3)Oc2ccccc21 (stereo not given) |  | inconclusive: -29.7%
CCN(CC(=O)Nc1ccc2c(c1)OCCO2)C(=O)c1cc(Cl)nc2ccccc12 |  | inactive: -0.0013%
CCCC(=O)Nc1ccc(-c2nc3cc(C)c(C)cc3o2)cc1 |  | inconclusive: 12.2%
Cn1c(CSCc2ccccc2Cl)nnc1SCC(=O)Nc1nccs1 |  | inconclusive: 10.2%
Nc1nonc1C(=O)N/N=C/c1ccc(-c2cccc([N+](=O)[O-])c2)o1 | inconclusive: 4.11 µM [rising, single point] | 
CC1(CCc2ccccc2)NC(=O)N(CC(=O)Nc2ccccc2)C1=O (stereo not given) |  | inconclusive: -19.4%
NS(=O)(=O)c1ccc(N/N=C/c2cn(-c3ccccc3)nc2-c2cccs2)cc1 | inconclusive: 7.31 µM [activator, partial curve, poor fit] | 
COC(=O)C(C)Sc1nc2c(c(=O)[nH]c(=O)n2C)n1CCCc1ccccc1 (stereo not given) | inconclusive: 28.2 µM [falling, partial curve, poor fit] | 
c1ccc(-c2ccccc2OCCCCN2CCCCCC2)cc1 |  | inconclusive: -1.32%
COC(=O)N1C(=O)[C@](c2ccccc2)(C2CCCCC2)N1C(=O)OC | inconclusive: 15.8 µM [falling, single point] | 
COc1cccc2sc(N(CCN(C)C)C(=O)/C=C/c3cccs3)nc12 |  | inconclusive: -16.3%
Cc1ccc(NC(=O)c2ccc(NCCc3ccccc3)c([N+](=O)[O-])c2)cc1F |  | inactive: -1.6%
O=c1c2ccccc2sn1-c1ccc(F)cc1 | inconclusive: 29.1 µM [cytotoxic, single point] | 
C=C(C)Cn1c(N2CCCC2)nc2c1c(=O)n(C)c(=O)n2C |  | inconclusive: 9.47%
COc1ccccc1N1CCN(C(=O)Cn2cnc3c2c(=O)n(C)c(=O)n3C)CC1 |  | inactive: -17.1%
COc1ccc(/C=C2\SC(=O)N(CCC(=O)N(C)C3CCS(=O)(=O)C3)C2=O)cc1 (stereo not given) | inconclusive: 14.1 µM [falling, single point] | 
O=C(c1cccnc1)N1CCN(S(=O)(=O)c2ccc3ccccc3c2)CC1 |  | inconclusive: -3.08%
CCOC(=O)C1CCN(Cc2ccc(F)c(F)c2)CC1 |  | inconclusive: -22.5%
Cc1cc(NC(=O)C(C)C)ncc1NC(=O)c1cccc(F)c1 |  | inconclusive: 0.7%
C[C@@H]1C=C[C@](Cc2ccccc2)(C(=O)NCCc2c[nH]c3ccccc23)N1C(=O)c1ccccc1 |  | inconclusive: -6.72%
CCCCNC(=O)COC(=O)c1ccc(Cl)c(S(N)(=O)=O)c1 |  | inconclusive: 10.4%
CCCSc1nsc(NC(=O)CCC)n1 | inconclusive: 35.5 µM [falling, single point] | 
COc1ccc(-c2noc(-c3ccccc3-c3ccccc3)n2)cc1 |  | inconclusive: 25%
O=C(Cc1c(F)cccc1Cl)Nc1cc(S(=O)(=O)N2CCOCC2)ccc1N1CCOCC1 |  | inactive: -8.75%
COc1ccc(NCc2n[nH]nc2-c2ccccc2)cc1Cl |  | inconclusive: 2.54%

Part of the list above, as tab-separated lines.
Structure (SMILES)	Potency	activity change, negative = inhibition
Cn1c(CSCc2ccccc2Cl)nnc1SCC(=O)Nc1nccs1		inconclusive: 10.2%
Nc1nonc1C(=O)N/N=C/c1ccc(-c2cccc([N+](=O)[O-])c2)o1	inconclusive: 4.11 µM [rising, single point]	
CC1(CCc2ccccc2)NC(=O)N(CC(=O)Nc2ccccc2)C1=O (stereo not given)		inconclusive: -19.4%
NS(=O)(=O)c1ccc(N/N=C/c2cn(-c3ccccc3)nc2-c2cccs2)cc1	inconclusive: 7.31 µM [activator, partial curve, poor fit]	
COC(=O)C(C)Sc1nc2c(c(=O)[nH]c(=O)n2C)n1CCCc1ccccc1 (stereo not given)	inconclusive: 28.2 µM [falling, partial curve, poor fit]	
c1ccc(-c2ccccc2OCCCCN2CCCCCC2)cc1		inconclusive: -1.32%
COC(=O)N1C(=O)[C@](c2ccccc2)(C2CCCCC2)N1C(=O)OC	inconclusive: 15.8 µM [falling, single point]	
COc1cccc2sc(N(CCN(C)C)C(=O)/C=C/c3cccs3)nc12		inconclusive: -16.3%
Cc1ccc(NC(=O)c2ccc(NCCc3ccccc3)c([N+](=O)[O-])c2)cc1F		inactive: -1.6%
O=c1c2ccccc2sn1-c1ccc(F)cc1	inconclusive: 29.1 µM [cytotoxic, single point]	
C=C(C)Cn1c(N2CCCC2)nc2c1c(=O)n(C)c(=O)n2C		inconclusive: 9.47%
COc1ccccc1N1CCN(C(=O)Cn2cnc3c2c(=O)n(C)c(=O)n3C)CC1		inactive: -17.1%
COc1ccc(/C=C2\SC(=O)N(CCC(=O)N(C)C3CCS(=O)(=O)C3)C2=O)cc1 (stereo not given)	inconclusive: 14.1 µM [falling, single point]	
O=C(c1cccnc1)N1CCN(S(=O)(=O)c2ccc3ccccc3c2)CC1		inconclusive: -3.08%
CCOC(=O)C1CCN(Cc2ccc(F)c(F)c2)CC1		inconclusive: -22.5%
Cc1cc(NC(=O)C(C)C)ncc1NC(=O)c1cccc(F)c1		inconclusive: 0.7%

Additional records follow:

Structure (SMILES) | Potency | activity change, negative = inhibition
COc1ccc(CC(=O)NNC(=O)c2ccc(SCc3cc(F)ccc3F)c([N+](=O)[O-])c2)cc1 |  | inconclusive: 4.28%
Nc1nc(N)c(C=Nc2ccc(Br)cc2)c(Nc2ccc(Br)cc2)n1 | inconclusive: 10 µM [rising, partial curve, poor fit] | 
CC1CCN(c2nc3ccc(C(=O)N4CCN(Cc5ccc6c(c5)OCO6)CC4)cc3s2)CC1 | inconclusive: 23.1 µM [falling, partial curve] | 
COc1ccccc1N(CC(=O)NC1CCCCC1)C(=O)CCC(=O)Nc1ccccn1 |  | inconclusive: -13%
COc1ccc(N2C(=O)c3ccc(C(=O)Nc4ccccc4O)cc3C2=O)cc1 |  | inactive: -2.24%
CSc1ccccc1NC(=O)CN(C)C(=O)Cc1c[nH]c2ccccc12 |  | inconclusive: -21.6%
NS(=O)(=O)c1ccc(NC(=O)COc2ccc(C(=O)c3ccc(F)cc3)cc2)cc1 |  | inactive: -13.8%
O=C(c1ccc2c3n(nc2c1)-c1ccc(Cl)cc1CO3)N1CCCCC1 |  | inconclusive: 9.36%
CCC(C)(C(=O)NC1CCCC1)N(Cc1cccs1)C(=O)Cc1cccs1 (stereo not given) |  | inconclusive: 11.3%
Cc1ccc(NC(=S)/C(=C(\[O-])c2ccc(Cl)s2)[n+]2cccc(CO)c2)cc1C |  | inconclusive: -3.8%
O=C(CSc1nnc2[nH]c(=O)cc(-c3ccccc3)n12)Nc1ccc(F)cc1F | inconclusive: 3.55 µM [falling, partial curve, poor fit] | 
COC(=O)c1cn(NC(=O)/C=C/c2cccc(OC)c2OC)c(=O)c2ccccc12 |  | inconclusive: 1.58%
COc1cc(C(=O)N/N=C(\Cc2ncc[nH]2)c2ccccc2)cc(OC)c1OC | inconclusive: 10 µM [falling, partial curve] | 
Cc1ccc(-c2nnc(N3CCC(C)CC3)c3ccccc23)cc1C |  | inactive: 0.732%
COCCSc1ccccc1C(=O)Nc1cccnc1 |  | inactive: -6.27%
Cc1ccnc(NC(=O)c2sc3ccccc3c2Cl)c1 |  | inconclusive: -19.5%
CC(=O)Nc1ccc([N+](=O)[O-])cn1 |  | inactive: 4.82%
Cc1ccc(C2=CC(c3c(F)cccc3Cl)n3ncnc3N2)cc1C (stereo not given) |  | inconclusive: -15.4%
CCOc1cccc(=O)c2c(C)n(Cc3ccco3)c(C)c12 |  | inactive: 4.57%
NNc1ccc(Cl)c(C(=O)O)c1 | inconclusive: 35.5 µM [rising, single point] | 
COc1ccc(/C(C)=C2\SC(=S)N(CCC(=O)O)C2=O)cc1 | inconclusive: 6.51 µM [falling, partial curve] | 
COC(=O)c1c(NC(=O)c2cccs2)sc2c1CCC(C)C2 (stereo not given) |  | inconclusive: 3.7%
CCSc1nnc(NC(=O)COc2ccc3ccccc3c2)s1 |  | inactive: 0.783%
N#CC1c2ccccc2C=CN1C(=O)c1ccccc1 (stereo not given) |  | inconclusive: 1.24%
CNC(=O)c1c[nH]c2ccc(S(=O)(=O)Nc3cccc(Cl)c3C)cc2c1=O |  | inconclusive: 14.9%
CN(C)/C=C/C(=O)c1ccccc1 | inconclusive: 35.5 µM [falling, single point] | 
